We go through three molecules from patent publication US20220396620A1.

In assay [1] the target is human cannabinoid receptor type 1 (CB1) (human) (UniProt P21554). Kind of assay: FACS on CHO-huCB-1 cells, single concentration 30 ug/mL.
Assay [2] has the same target. The assay can be described thus: flow cytometry, single point at 30 ug/mL antibody on CHO-huCB-1 cells. In general terms: A flow cytometer gives signals particle by particle.
The target is the same in assay [3]. Kind of assay: flow cytometry, single point at 30 ug/mL antibody, signal on CHO-huCB-1 cells relative to CHO parental cells.

Positions count from the first letter of the chain named. No constants are given. Whether binding was seen depends on the method and setting. Some results given as binding are weak or reduced against the parent protein; the word gives no strength.

B1: M7-H1 humanized anti-CB1 antibody (antibody, human IgG1, kappa, L234A L235A, V domains shown)
VH: QVQLVQSGAEVVKPGASVKLSCKASSYTFTRYWMNWVKQAPGQGLEWIGMIDPYDSETHYNQKFKGKATLTVDKSTSTAYMELSSLRSEDTAVYFCARSQPRYYAMDYWGQGTTVTVSS
VL: DIQMTQSPSSLSASLGDRVTLTCRASQEISGFLSWLQLKPGKTIKRLIYAASSLDSGVPSRFSGSWSGTDYTLTISSLQPEDFADYYCLQYSSYPYTFGGGTKLEIKR
As for B1, the binding result in assay [1] and in assay [2] was “binds” in each case.

B2: M7-H4 humanized anti-CB1 antibody (antibody, human IgG1, kappa, L234A L235A, V domains shown)
VH: B1 VH with V12K, L20V, K65Q, K67R, K74T, A79V
VL: B1 VL with L15V, T43A, L104V
For the molecule B2, the binding result in assay [1] and in assay [2] was “binds” each time.

B3: M7-H7 humanized anti-CB1 antibody (antibody, human IgG1, kappa, L234A L235A, V domains shown)
VH: B1 VH
VL: B1 VL
As to B3, the binding entry in assay [1] and in assay [3] was “binds” throughout.
